Source: the supplement of paper PMC6078165
The reference is the same well before dosing, and untreated signal decays as well.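 Labels refer to human fibroblasts, largely primary: uterine (C12385, HUF), lung (H6013), bone (Hs27A), adrenal (HADF), skin (WS1), plus mammary HMF and breast cancer-associated Hs343T. Cancer lines are basal-like or mesenchymal-like triple-negative breast cancer. The paper counts as hits responses shifting over 3x the replicate standard deviation. The tissue of the other fibroblasts is not given here.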

System: Hs578T
Assay: relative JC-1 red fluorescence (viability) vs pre-drug, coculture with fibroblast (fraction); higher = more viable cancer cells
Method: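 JC-1 labelled TNBC cells cocultured 1:1 (1,500 cells each) with CellTrace Violet stained primary or stromal fibroblasts in 384-well plates in FluoroBrite medium, treated with one of 42 anticancer drugs at 0.1, 1, 10 or 100 uM. JC-1 red fluorescence (mitochondrial integrity in cancer cells only) was read by plate reader every 8 h for 72 h. Values are normalised to each well's pre-drug value. The stock of one drug was tenfold lower, so its dose labels may be too high.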

CS(=O)(=O)CCNCc1ccc(-c2ccc3ncnc(Nc4ccc(OCc5cccc(F)c5)c(Cl)c4)c3c2)o1 [Lapatinib]
relative JC-1 red fluorescence
Conditions | 8 h | 16 h | 24 h | 32 h | 40 h | 48 h | 56 h | 64 h | 72 h
10 µM | 0.892 | 0.923 | 0.92 | 0.885 | 0.846 | 0.839 | 0.847 | 0.825 | 0.842
100 µM | 0.874 | 0.8099 | 0.8049 | 0.792 | 0.758 | 0.729 | 0.744 | 0.704 | 0.708

relative JC-1 red fluorescence
Conditions | 8 h | 16 h | 24 h | 32 h | 40 h | 48 h | 56 h | 64 h | 72 h
10 µM, coculture fibroblast: C12385 | 0.817 | 0.738 | 0.685 | 0.644 | 0.616 | 0.603 | 0.604 | 0.614 | 0.633
10 µM, coculture fibroblast: H6013 | 0.821 | 0.75799 | 0.727 | 0.739 | 0.73 | 0.737 | 0.752 | 0.769 | 0.776
10 µM, coculture fibroblast: H6019 | 0.814 | 0.781 | 0.777 | 0.7423 | 0.7908 | 0.833 | 0.872 | 0.871 | 0.866
10 µM, coculture fibroblast: H6076 | 0.932 | 0.956 | 0.938 | 0.916 | 0.898 | 0.912 | 0.891 | 0.891 | 0.878
10 µM, coculture fibroblast: H6231 | 0.86 | 0.96 | 0.926 | 0.869 | 0.849 | 0.85 | 0.827 | 0.816 | 0.797
10 µM, coculture fibroblast: HADF | 0.7856 | 0.6901 | 0.63 | 0.602 | 0.578 | 0.563 | 0.557 | 0.543 | 0.522
10 µM, coculture fibroblast: HCFa | 0.8683 | 0.8243 | 0.7474 | 0.698 | 0.666 | 0.659 | 0.678 | 0.723 | 0.776
10 µM, coculture fibroblast: HCPF | 0.875 | 0.9674 | 0.927 | 0.898 | 0.8609 | 0.8536 | 0.8551 | 0.822 | 0.8269
10 µM, coculture fibroblast: HHSteC | 0.8452 | 0.756 | 0.737 | 0.752 | 0.745 | 0.7404 | 0.754 | 0.764 | 0.78
10 µM, coculture fibroblast: HMF | 0.827 | 0.842 | 0.941 | 0.931 | 0.894 | 0.882 | 0.849 | 0.846 | 0.827
10 µM, coculture fibroblast: HPFa | 0.8345 | 0.7101 | 0.663 | 0.642 | 0.6428 | 0.6557 | 0.709 | 0.763 | 0.774
10 µM, coculture fibroblast: HUF | 0.921 | 0.869 | 0.826 | 0.74 | 0.707 | 0.708 | 0.739 | 0.795 | 0.84
10 µM, coculture fibroblast: Hs27A | 0.815 | 0.735 | 0.681 | 0.64 | 0.601 | 0.581 | 0.593 | 0.639 | 0.654
10 µM, coculture fibroblast: Hs343T | 0.886 | 0.929 | 0.9099 | 0.895 | 0.8475 | 0.8391 | 0.81219 | 0.801 | 0.794
10 µM, coculture fibroblast: WS1 | 0.823 | 0.7333 | 0.657 | 0.621 | 0.593 | 0.6 | 0.586 | 0.5885 | 0.5941
100 µM, coculture fibroblast: C12385 | 0.8407 | 0.743 | 0.734 | 0.657 | 0.614 | 0.587 | 0.56 | 0.546 | 0.536
100 µM, coculture fibroblast: H6013 | 0.9033 | 0.8596 | 0.81878 | 0.787 | 0.7369 | 0.715 | 0.674 | 0.651 | 0.611
100 µM, coculture fibroblast: H6019 | 0.827 | 0.761 | 0.76 | 0.684 | 0.658 | 0.631 | 0.609 | 0.591 | 0.562
100 µM, coculture fibroblast: H6076 | 0.945 | 0.9 | 0.903 | 0.91 | 0.893 | 0.908 | 0.874 | 0.87 | 0.859
100 µM, coculture fibroblast: H6231 | 0.922 | 0.866 | 0.858 | 0.826 | 0.786 | 0.784 | 0.753 | 0.728 | 0.713
100 µM, coculture fibroblast: HADF | 0.97 | 0.791 | 0.951 | 0.922 | 0.952 | 0.922 | 0.88 | 0.8573 | 0.8126
100 µM, coculture fibroblast: HCFa | 0.864 | 0.823 | 0.781 | 0.7385 | 0.684 | 0.659 | 0.626 | 0.6115 | 0.57596
100 µM, coculture fibroblast: HCPF | 0.938 | 0.849 | 0.816 | 0.78415 | 0.723 | 0.707 | 0.694 | 0.652 | 0.627
100 µM, coculture fibroblast: HHSteC | 0.897 | 0.814 | 0.769 | 0.735 | 0.679 | 0.654 | 0.62 | 0.6016 | 0.573
100 µM, coculture fibroblast: HMF | 0.841 | 0.842 | 0.773 | 0.759 | 0.78 | 0.759 | 0.764 | 0.686 | 0.717
100 µM, coculture fibroblast: HPFa | 0.967 | 0.89842 | 0.861 | 0.81 | 0.774 | 0.743 | 0.702 | 0.675 | 0.625
100 µM, coculture fibroblast: HUF | 0.921 | 0.828 | 0.797 | 0.698 | 0.641 | 0.606 | 0.572 | 0.56 | 0.539
100 µM, coculture fibroblast: Hs27A | 0.882 | 0.957 | 0.897 | 0.891 | 0.907 | 0.844 | 0.756 | 0.7957 | 0.769
100 µM, coculture fibroblast: Hs343T | 0.953 | 0.904 | 0.901 | 0.895 | 0.842 | 0.823 | 0.794 | 0.748 | 0.736
100 µM, coculture fibroblast: WS1 | 0.782 | 0.753 | 0.741 | 0.662 | 0.622 | 0.614 | 0.589 | 0.578 | 0.566
